This passage reports binding results from US20230365681A1 (CELGENE, published 2023).

The target in the assay is cynomolgus CD47 on red blood cells (cynomolgus monkey). Put plainly: isolated cynomolgus RBCs, reference of the assay.

Results are given in words; binding and its absence hold for the method and conditions named. Some entries that bind do so weakly or less than the wild type.

B1: TPP-23 (408_437 Fab with IgG1) (antibody, V domains shown)
VH: QMQLVQSGAEVKKPGSSVKVSCKASGFNIKDYYLHWVRQAPGKGLEWMGWIDPDQGDTEYAQKFQGRVTITRDRSTSTAYMELRSLRAEDTAVYYCNAAYGSSSYPMDYWGQGTLVTVSS
VL: NIQMTQSPSSLSASVGDRVTITCRASQDIHRYLSWFQQKPGKVPKHLIYRANRLVSGVPSRFSGSGSGTEFTLTISSLQPEDFATYYCLQYDEFPYTFGGGTKVEIK
notes: The crystal structure was made with an anti-CD47 Fab of this antibody; also called parental CD47 mAb
Consider B1, for which the binding result is on record as “binds”.
